# Results are given in words; binding and its absence hold for the method and conditions named. In cells and extracts the contact can be indirect. Some binding calls cover weakened binding; strength is not graded here.
# Chains of the proteins cited; added tags and fusions are not shown.
# UniProt P22366: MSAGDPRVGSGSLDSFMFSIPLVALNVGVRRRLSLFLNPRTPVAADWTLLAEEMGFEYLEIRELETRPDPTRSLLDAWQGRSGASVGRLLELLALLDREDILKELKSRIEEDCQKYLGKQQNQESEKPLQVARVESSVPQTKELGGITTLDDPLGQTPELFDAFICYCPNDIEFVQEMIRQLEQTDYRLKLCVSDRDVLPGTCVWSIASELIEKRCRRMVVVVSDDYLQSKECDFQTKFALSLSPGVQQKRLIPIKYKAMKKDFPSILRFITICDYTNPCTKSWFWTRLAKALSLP
# UniProt Q62120: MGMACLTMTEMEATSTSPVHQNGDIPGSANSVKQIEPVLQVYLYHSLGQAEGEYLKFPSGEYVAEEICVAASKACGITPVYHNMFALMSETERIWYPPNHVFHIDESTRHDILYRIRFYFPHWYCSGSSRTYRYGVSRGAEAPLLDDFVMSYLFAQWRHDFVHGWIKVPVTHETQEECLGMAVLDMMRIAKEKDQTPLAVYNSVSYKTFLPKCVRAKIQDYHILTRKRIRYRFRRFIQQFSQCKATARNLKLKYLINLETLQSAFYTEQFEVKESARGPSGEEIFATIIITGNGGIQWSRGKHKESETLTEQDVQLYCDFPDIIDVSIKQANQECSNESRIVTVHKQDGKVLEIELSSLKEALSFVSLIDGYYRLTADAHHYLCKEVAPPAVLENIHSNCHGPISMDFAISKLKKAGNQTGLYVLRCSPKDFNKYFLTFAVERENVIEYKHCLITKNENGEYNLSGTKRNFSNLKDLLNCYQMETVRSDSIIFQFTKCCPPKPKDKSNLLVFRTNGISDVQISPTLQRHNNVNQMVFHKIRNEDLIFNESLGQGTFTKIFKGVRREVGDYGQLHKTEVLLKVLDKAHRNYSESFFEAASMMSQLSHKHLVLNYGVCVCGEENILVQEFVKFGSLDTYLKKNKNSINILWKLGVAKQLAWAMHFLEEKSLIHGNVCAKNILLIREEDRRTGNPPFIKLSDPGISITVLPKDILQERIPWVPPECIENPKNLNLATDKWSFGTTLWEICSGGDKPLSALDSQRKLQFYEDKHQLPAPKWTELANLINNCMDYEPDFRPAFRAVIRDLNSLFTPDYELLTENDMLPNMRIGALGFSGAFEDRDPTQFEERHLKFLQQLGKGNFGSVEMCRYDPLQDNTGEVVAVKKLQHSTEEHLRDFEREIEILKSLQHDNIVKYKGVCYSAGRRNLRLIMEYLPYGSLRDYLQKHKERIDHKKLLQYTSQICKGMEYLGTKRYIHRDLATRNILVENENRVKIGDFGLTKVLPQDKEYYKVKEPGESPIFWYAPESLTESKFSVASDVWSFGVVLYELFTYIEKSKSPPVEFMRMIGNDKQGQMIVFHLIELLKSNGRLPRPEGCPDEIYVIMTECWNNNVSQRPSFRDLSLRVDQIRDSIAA
# Experiments:
# [1] = target: MyD88 (endogenous, mouse bone marrow neutrophils) (mouse (endogenous in bone marrow neutrophils)) (UniProt P22366); experiment: co-IP; endogenous; lysates of WT and Dok3-/- mouse neutrophils treated with or without S protein for 15 min (or WT neutrophils with increasing PHPS1 and S protein), IP with anti-MyD88; probed for JAK2, pMyD88(Y257), MyD88
# [2] = target: T1, Dok3 (endogenous, mouse bone marrow neutrophils) (mouse (endogenous in bone marrow neutrophils)) (UniProt Q9QZK7); experiment: co-IP; endogenous; lysates of WT mouse neutrophils IP with anti-Dok3 or IgG control; probed for Dok3 and MyD88
# T1 sequence: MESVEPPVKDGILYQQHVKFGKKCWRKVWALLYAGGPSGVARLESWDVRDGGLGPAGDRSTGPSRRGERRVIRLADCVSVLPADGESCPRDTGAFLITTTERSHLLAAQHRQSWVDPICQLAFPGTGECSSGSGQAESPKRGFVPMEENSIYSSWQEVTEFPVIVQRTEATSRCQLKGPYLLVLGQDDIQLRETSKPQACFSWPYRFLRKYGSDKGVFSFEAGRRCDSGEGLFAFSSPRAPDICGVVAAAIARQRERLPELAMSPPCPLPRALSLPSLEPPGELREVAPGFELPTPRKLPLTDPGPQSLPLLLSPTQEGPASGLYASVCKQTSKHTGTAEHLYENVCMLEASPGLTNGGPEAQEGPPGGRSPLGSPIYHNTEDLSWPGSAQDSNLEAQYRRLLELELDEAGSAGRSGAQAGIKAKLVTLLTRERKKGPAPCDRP
binding [1],binding [2],Substance
binds,–,"JAK2 (endogenous, mouse bone marrow neutrophils) (from UniProt Q62120 1-1132) (enzyme)"
–,binds,"MyD88 (endogenous, mouse bone marrow neutrophils) (from UniProt P22366 1-296)"

# Reference: paper PMC9510782
